The other results are listed elsewhere or left out.
These sequences were tested against T1, OsSMF1 (Oryza sativa, UniProt Q6ZLB0 1-436) (assay: protein-binding microarray (RPBM); PBS, 2% BSA, 51.3 ng/ul salmon testes DNA, 50 uM zinc acetate, 200 nM TF, 25 C, 1 h; high values mean tight binding). Settings: protein: recombinant; tags: N-terminal polyhistidine and DsRed monomer fusion (pET32a); chain copies: 2; label: CyDye5-dUTP incorporated in the synthesized complementary strand; 3' TTTTT single-stranded linker to array surface; dsDNA, one strand shown.
T1 sequence: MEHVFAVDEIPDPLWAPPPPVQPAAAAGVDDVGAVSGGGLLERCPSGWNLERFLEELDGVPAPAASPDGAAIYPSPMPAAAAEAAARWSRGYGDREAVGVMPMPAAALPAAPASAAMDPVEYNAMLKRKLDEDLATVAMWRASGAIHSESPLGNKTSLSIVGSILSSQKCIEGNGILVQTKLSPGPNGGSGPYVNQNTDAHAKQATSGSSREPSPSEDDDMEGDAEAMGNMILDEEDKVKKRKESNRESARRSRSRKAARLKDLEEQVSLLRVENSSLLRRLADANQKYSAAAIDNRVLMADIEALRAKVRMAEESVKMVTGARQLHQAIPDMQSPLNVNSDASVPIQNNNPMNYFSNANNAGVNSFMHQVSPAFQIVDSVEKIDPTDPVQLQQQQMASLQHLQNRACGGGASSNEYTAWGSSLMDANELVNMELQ
Procedure, shortened: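 In PBS with 2% BSA, salmon testes DNA and 50 µM zinc acetate, 200 nM protein was incubated on a custom Agilent array at 25 °C for 1 h and then washed off. The array had been made double-stranded by primer extension with Cy5-dUTP and blocked with 2% BSA. The proteins were transcription factors fused N-terminally to polyhistidine and DsRed, expressed in E. coli BL21-CodonPlus and purified on Ni–NTA. The binding signal is per-feature fluorescence intensity (arbitrary units) from an Axon 4000B scanner.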
In the case of “AGCCGCGCTGTGTGCGTGCGTGCGTGGTTGCTGCGGCTTCCGGAGTCACCTAGTGCAG”, the binding signal is reported as 3330 fluorescence intensity (a.u.).
With “TATTTAGGATAAAATTTTATGAAAACATTTAAAATTTGACCGGAGTCACCTAGTGCAG” the binding signal was 26200 fluorescence intensity (a.u.).
For “TTAGATTCAGGGGTGTAAAGTTTTGGCGTGTCACATCGGGCGGAGTCACCTAGTGCAG”, the binding signal was 3970 fluorescence intensity (a.u.).
In the case of “CCCGCCCACTCACCCGCCCACGCGGCTGCCAGCCTACCAACGGAGTCACCTAGTGCAG”, the binding signal is reported as 3760 fluorescence intensity (a.u.).
For “TCGGCTGACTCGGCGACTGACCGCGCGCCACCGCCGCTGACGGAGTCACCTAGTGCAG”, the binding signal was 5800 fluorescence intensity (a.u.).
In the case of “CGTGGACACGTACACTCGACTCTTTGGCAGTGGAGACTGACGGAGTCACCTAGTGCAG”, the binding signal is reported as 4370 fluorescence intensity (a.u.).
With “AGCTCGCCACGCTGTGCGACATCCCCGTCGCCGTCGTGTGCGGAGTCACCTAGTGCAG” the binding signal was 3280 fluorescence intensity (a.u.).
In the case of “TGAGCACGAGCCCGGCTTCCTCCGGCGTCAGCGGGCACCGCGGAGTCACCTAGTGCAG”, the binding signal is reported as 3260 fluorescence intensity (a.u.).
“AATATGTAACATTTTCTTTGCATACTTGAATATTGCATCACGGAGTCACCTAGTGCAG” was tested, and the binding signal was 3480 fluorescence intensity (a.u.).
“CACCAATAGTGTGGATGGCGGGTGACGGTCATCGTCTCTACGGAGTCACCTAGTGCAG” was tested, and the binding signal was 4070 fluorescence intensity (a.u.).
With “TCTGTTCTTTTGAGTCAAATGACTTGGTGTGTGACCGTGTCGGAGTCACCTAGTGCAG” the binding signal was 3140 fluorescence intensity (a.u.).
“GAAGCTGTCATCGCTGATGCGGCGAAGAGATCATCATCACCGGAGTCACCTAGTGCAG” was tested, and the binding signal was 4450 fluorescence intensity (a.u.).
With “AGCACTCCCTGGTGCCGCCGGCAGAGCTTCCTAACGTCACCGGAGTCACCTAGTGCAG” the binding signal was 4460 fluorescence intensity (a.u.).
For “CAGTGCGGCAGTGGCGGGCAGTGCCACAAGCAGCGTCGACCGGAGTCACCTAGTGCAG”, the binding signal was 3610 fluorescence intensity (a.u.).
For “CGAAACGGCGAGAAGGGAACCGCCTCGGCCACGCTGGACCCGGAGTCACCTAGTGCAG”, the binding signal was 3740 fluorescence intensity (a.u.).
In the case of “CGGTGGATCGTGACGTGCTGTGGTGGTCTCTGATCTGCTCCGGAGTCACCTAGTGCAG”, the binding signal is reported as 6990 fluorescence intensity (a.u.).
“TGCTATGCTATGGCAAGAACATCTTGAGCCATGACATCATCGGAGTCACCTAGTGCAG” was tested, and the binding signal was 4390 fluorescence intensity (a.u.).
For “ATACACCAGGACCACAGCGATGCCTGATATTGACAACCCACGGAGTCACCTAGTGCAG”, the binding signal was 11000 fluorescence intensity (a.u.).
In the case of “AATAAGCAAACAGATAATATGAAAGAGAATGAGGTGTAATCGGAGTCACCTAGTGCAG”, the binding signal is reported as 3440 fluorescence intensity (a.u.).
In the case of “CTCTTCCACGCTTCGGCTTCCATCCAATCATCTGCATCGTCGGAGTCACCTAGTGCAG”, the binding signal is reported as 3170 fluorescence intensity (a.u.).
“GAGTTAGCAGTGTTGACCACGGTCAAGGTGCCACGTCATCCGGAGTCACCTAGTGCAG” was tested, and the binding signal was 43000 fluorescence intensity (a.u.).
In the case of “CACCCAGTCCACCGCGCCGCCATGCCGCGCCACCGGAGCTCGGAGTCACCTAGTGCAG”, the binding signal is reported as 3290 fluorescence intensity (a.u.).
With “TTTCTTCATGCACTGCTCCTACGTGCCGCGATCATTGCTTCGGAGTCACCTAGTGCAG” the binding signal was 3750 fluorescence intensity (a.u.).
With “AAGGTGTGTGTCACTGGGGCTTCTGGCTATGTTGCCTCTTCGGAGTCACCTAGTGCAG” the binding signal was 4150 fluorescence intensity (a.u.).
For “TTTTGTCTATATTTAATACTCCATGCATGTGTCCAAAGATCGGAGTCACCTAGTGCAG”, the binding signal was 3340 fluorescence intensity (a.u.).
For “CTTTTCTTTCTTTCTTTTCGCACTTACAAAACAGCACTGTCGGAGTCACCTAGTGCAG”, the binding signal was 3520 fluorescence intensity (a.u.).
In the case of “GGGACCACAGGACCTTTCTAAACCTGCAGATATAGAATTGCGGAGTCACCTAGTGCAG”, the binding signal is reported as 19300 fluorescence intensity (a.u.).
For “GTCCCAAAACTGCACCAACACTGCAACTCACCTTGTTCAGCGGAGTCACCTAGTGCAG”, the binding signal was 4050 fluorescence intensity (a.u.).
“TTGTGATCGTCTCATTGACGCGGCGGCGGCGGCGGTGCTGCGGAGTCACCTAGTGCAG” was tested, and the binding signal was 3660 fluorescence intensity (a.u.).
“AGCACTATGTTTGATTCATTGGCCAATGTATGCACGGTAACGGAGTCACCTAGTGCAG” was tested, and the binding signal was 6580 fluorescence intensity (a.u.).
“GAGTTGTGTGTATGGACACGTGGTGGGCCAGGGGAGGGGACGGAGTCACCTAGTGCAG” was tested, and the binding signal was 5720 fluorescence intensity (a.u.).
In the case of “GTCCTTATCTCGGCGTCCGAGCCCACCACCGCACCACCGCCGGAGTCACCTAGTGCAG”, the binding signal is reported as 3380 fluorescence intensity (a.u.).
In the case of “TTTGTGTGTGTAGGAAAATTTTGATGTGATGGAAAAGTTGCGGAGTCACCTAGTGCAG”, the binding signal is reported as 3450 fluorescence intensity (a.u.).
For “GTGATTCACAAAAGAAAGCCTATCACGCGTGGAAACATCCCGGAGTCACCTAGTGCAG”, the binding signal was 3990 fluorescence intensity (a.u.).
For “GCCCGGAAGCTAGCGCCTCGTCGACTTGGGCGGCGGCTGACGGAGTCACCTAGTGCAG”, the binding signal was 18000 fluorescence intensity (a.u.).
With “CCAACGCCTCGTCCGCGCGTGTCGACCTGGCGATCGCCTGCGGAGTCACCTAGTGCAG” the binding signal was 5150 fluorescence intensity (a.u.).
In the case of “CCTCGCGCCGCCGCTGCGTCATCTCCGGCCTCCGTCGCACCGGAGTCACCTAGTGCAG”, the binding signal is reported as 6430 fluorescence intensity (a.u.).
In the case of “AAAGGATGATATTTATTCGATCCTTGTTCGAATGTAGACTCGGAGTCACCTAGTGCAG”, the binding signal is reported as 55700 fluorescence intensity (a.u.).
With “AGAGGAGGAGGAGGAGGAGGAAGGAAACCCACGAGGGCACCGGAGTCACCTAGTGCAG” the binding signal was 20200 fluorescence intensity (a.u.).
For “CGGGTCGTCTTCATCGACCTCCTACGCCCCGTCACGGCGCCGGAGTCACCTAGTGCAG”, the binding signal was 4810 fluorescence intensity (a.u.).
“TCTGCTTCTTGCGCCAAAGCTTCTGCTCACGTGTGATTTGCGGAGTCACCTAGTGCAG” was tested, and the binding signal was 5420 fluorescence intensity (a.u.).
With “ATAATGGGAAATGTGGGGTAGGATTGGTATTGGAAAATGACGGAGTCACCTAGTGCAG” the binding signal was 3180 fluorescence intensity (a.u.).

Source: paper PMC7819943, “Rice protein-binding microarrays: a tool to detect cis-acting elements near promoter regions in rice”
